Measured values taken from paper PMC4639896.

Biological target: T1, ABI5C153S (UniProt Q9SJN0)
T1 sequence (looked up, limits assumed): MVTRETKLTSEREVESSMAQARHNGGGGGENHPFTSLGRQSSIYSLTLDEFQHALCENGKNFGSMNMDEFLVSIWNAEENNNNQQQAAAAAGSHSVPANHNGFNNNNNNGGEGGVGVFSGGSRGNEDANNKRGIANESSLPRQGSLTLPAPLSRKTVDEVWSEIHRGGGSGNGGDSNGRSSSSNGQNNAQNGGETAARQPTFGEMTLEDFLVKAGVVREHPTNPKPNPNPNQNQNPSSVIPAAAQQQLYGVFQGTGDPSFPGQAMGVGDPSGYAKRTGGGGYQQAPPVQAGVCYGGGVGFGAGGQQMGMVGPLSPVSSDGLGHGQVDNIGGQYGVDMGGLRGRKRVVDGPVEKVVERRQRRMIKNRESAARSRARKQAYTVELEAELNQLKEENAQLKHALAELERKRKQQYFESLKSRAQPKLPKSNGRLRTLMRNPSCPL
Assay: EMSA
Settings: 10 mM Tris pH 8, 1 mM EDTA, 100 mM NaCl, 2 mM DTT (reducing), 10% glycerol, 0.5 ug poly(dI-dC), BSA, 10 ng probe, 1.5 ug protein, 30 min on ice, 6% PAGE 0.5x TBE, recombinant protein, protein details: N-terminal 6xHis (pET-28a+), label: biotin

Measured: binding result

GATCCTCTCGCGTACAATAAAGTCAGACACGTGGCATGTCACCAACGTAGCGTATGCGTA (double strand) [ABRE probe]
binds: non-reducing, 1 mM GSNO | non-reducing, no GSNO | reducing conditions (DTT)

Construct, isoform or probe ends are uncertain for at least one entry. At least one verdict rests on a figure or table, not on a statement of the authors. Tags and fusion partners may be left off the protein sequences shown.
